Results published in US20240327848.

Biological target: human serum albumin (HSA) (Homo sapiens) (UniProt P02768)
Assay: ELONA
Conditions: purified recombinant protein, label: biotin, single-stranded DNA
[1] = Nap-dU at all positions marked 6 (n)

Sequence	binding result [1]	binding result (Nap-dU at all positions marked 6 (n) [n positions 17,19,20,25,31,32,39,41,44,45,53 = modified dU])
GAGTGACCGTCTGCCTTAGTGGGATGATCTTGCCATAGAACTTAACCGGATGGTCACAGCCACACCACCAGCC [Clone 8]	binds	–
GAGTGACCGTCTGCCTTCTTGAACTAGAACTTAACCGCTATGGTTACAGCGGTACAGCCACACCACCAGCC [Clone 10]	–	binds
GAGTGACCGTCTGCCTACTAAATGTCTGTCAAATACTATACGGTCTCGTATCATGACAGCCACACCACCAGCC [Clone 9]	binds	–
